No constants are given. Whether binding was seen depends on the method and setting. Binding seen in cells or lysates may run through a third protein. A yes stands for co-enrichment or nearness to the bait. Other partners may have been found.
Biological target: HA-tagged SOD1 (UniProt P00441)
Assay: affinity purification with mass spectrometry

By UniProt entry, the sequences of proteins in these tests, tags left out.
UniProt P00441, whole entry: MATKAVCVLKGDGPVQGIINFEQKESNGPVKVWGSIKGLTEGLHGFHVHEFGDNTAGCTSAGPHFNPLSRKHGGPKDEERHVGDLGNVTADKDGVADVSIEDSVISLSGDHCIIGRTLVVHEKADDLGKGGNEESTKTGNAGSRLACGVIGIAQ

binding | Substance
binds | FEN1 (from UniProt P39748 1-380)
binds | PCNA (from UniProt P12004 1-261)
binds | POLD1 (a DNA polymerase subunit) (from UniProt P28340 1-1107)
binds | glyceraldehyde-3-phosphate dehydrogenase (GAPDH) (from UniProt P04406 1-335)

Reference: article doi:10.1101/2025.08.11.669663
